# Results from PMC7862700.
# By UniProt entry, the sequences of proteins in these tests, tags left out. Where a name states a change or a piece, a line headed by the entry shows the natural chain unless it says otherwise.
# UniProt Q99607: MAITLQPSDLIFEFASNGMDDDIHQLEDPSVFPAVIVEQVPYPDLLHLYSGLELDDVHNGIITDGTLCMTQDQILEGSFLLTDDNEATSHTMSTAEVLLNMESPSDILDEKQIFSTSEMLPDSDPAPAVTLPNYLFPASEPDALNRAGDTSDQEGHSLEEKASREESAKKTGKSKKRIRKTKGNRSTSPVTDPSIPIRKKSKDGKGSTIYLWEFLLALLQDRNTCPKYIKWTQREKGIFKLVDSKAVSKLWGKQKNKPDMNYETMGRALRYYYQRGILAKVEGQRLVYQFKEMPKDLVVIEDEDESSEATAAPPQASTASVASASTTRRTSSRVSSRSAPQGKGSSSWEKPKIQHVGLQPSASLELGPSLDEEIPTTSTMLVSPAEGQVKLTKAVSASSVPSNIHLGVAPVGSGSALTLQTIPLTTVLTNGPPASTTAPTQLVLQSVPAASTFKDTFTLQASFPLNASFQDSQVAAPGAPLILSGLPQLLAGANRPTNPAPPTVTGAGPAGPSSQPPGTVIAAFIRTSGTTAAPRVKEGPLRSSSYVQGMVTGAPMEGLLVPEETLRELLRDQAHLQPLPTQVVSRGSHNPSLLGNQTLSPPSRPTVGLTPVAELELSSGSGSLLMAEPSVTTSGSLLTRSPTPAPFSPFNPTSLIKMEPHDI
# UniProt Q01892: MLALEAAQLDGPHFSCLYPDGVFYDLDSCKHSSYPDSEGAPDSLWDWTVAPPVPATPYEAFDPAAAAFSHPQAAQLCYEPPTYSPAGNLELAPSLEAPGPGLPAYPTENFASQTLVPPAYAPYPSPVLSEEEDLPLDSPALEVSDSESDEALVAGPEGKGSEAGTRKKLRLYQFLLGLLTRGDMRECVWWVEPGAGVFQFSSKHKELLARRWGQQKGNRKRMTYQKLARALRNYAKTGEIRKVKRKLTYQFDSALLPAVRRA
# The list shows a part of the results, in another mix than the full data. At the low end of the ranking the order means little.
# Experiments:
# Assay in all cases: DAPPL (digital affinity profiling via proximity ligation, sequencing)
# Settings in all cases: 10 mM Tris-HCl pH 7.5, 50 mM NaCl, 1 mM DTT, 4% glycerol, room temperature, 30 min; GST-TFs on glutathione beads, 16-mer random dsDNA library, 0.1% …; high values mean tight binding; double strand, one strand shown; scale: fold enrichment (6-mer frequency, TF over GST control)
# [1] = molecular target: T1, FLI1 (UniProt Q01543)
# T1 sequence: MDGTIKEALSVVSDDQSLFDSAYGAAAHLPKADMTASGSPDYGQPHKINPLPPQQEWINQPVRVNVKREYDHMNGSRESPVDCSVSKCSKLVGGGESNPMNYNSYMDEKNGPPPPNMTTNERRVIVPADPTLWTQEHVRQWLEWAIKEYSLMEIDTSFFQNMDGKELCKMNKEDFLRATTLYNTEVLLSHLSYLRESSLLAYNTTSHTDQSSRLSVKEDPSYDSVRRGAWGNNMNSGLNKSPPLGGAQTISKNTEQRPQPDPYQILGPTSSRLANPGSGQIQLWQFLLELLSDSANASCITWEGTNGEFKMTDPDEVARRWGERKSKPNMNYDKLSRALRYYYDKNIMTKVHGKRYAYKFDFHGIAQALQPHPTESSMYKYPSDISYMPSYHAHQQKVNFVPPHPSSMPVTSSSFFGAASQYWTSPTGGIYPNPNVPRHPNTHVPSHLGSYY
# [2] = molecular target: ELF4 (UniProt Q99607)
# [3] = molecular target: T2, ETV3L (UniProt Q6ZN32)
# T2 sequence: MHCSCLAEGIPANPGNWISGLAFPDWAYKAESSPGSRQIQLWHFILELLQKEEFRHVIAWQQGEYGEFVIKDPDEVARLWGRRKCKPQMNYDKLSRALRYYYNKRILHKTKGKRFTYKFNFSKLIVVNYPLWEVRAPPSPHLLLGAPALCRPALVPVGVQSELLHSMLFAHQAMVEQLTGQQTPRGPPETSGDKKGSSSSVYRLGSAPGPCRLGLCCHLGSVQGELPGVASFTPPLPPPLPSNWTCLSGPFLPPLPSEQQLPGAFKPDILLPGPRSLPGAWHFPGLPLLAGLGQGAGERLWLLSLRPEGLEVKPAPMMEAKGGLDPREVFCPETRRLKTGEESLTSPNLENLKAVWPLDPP
# [4] = molecular target: T3, EHF (UniProt Q9NZC4)
# T3 sequence: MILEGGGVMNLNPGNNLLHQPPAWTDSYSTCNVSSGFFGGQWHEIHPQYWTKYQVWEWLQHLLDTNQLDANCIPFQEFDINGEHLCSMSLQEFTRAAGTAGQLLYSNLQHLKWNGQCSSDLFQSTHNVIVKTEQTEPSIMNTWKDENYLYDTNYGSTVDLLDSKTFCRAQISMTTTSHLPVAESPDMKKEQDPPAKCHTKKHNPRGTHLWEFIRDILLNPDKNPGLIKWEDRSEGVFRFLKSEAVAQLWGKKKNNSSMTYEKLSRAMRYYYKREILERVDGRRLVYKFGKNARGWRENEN
# [5] = molecular target: SPIB (UniProt Q01892)
# [6] = molecular target: T4, ETV2 (UniProt O00321)
# T4 sequence: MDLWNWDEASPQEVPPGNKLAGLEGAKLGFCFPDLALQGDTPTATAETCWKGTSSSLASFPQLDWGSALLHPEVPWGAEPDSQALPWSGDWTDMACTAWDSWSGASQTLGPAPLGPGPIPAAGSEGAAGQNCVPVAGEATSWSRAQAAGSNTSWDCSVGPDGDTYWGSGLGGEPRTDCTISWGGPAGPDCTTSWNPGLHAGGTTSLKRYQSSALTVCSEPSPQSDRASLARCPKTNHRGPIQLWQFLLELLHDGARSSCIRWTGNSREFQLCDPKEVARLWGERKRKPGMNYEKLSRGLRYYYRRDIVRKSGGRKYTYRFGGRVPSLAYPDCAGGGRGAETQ
Sequence,binding signal [1],binding signal [2],binding signal [3],binding signal [4],binding signal [5],binding signal [6]
AGCTCA,1.07,1.16,1.08,,,
CCCAAG,1.09,1.03,,0.983,0.924,0.971
CAACGC,1.04,1.11,,1.01,0.966,1.1
AGAGCT,0.969,0.955,0.884,,0.844,0.894
CCACAC,1.07,1.1,,1.12,,0.941
TGACCG,1.62,1.47,,1.53,,1.52
TTTTAT,1.4,1.4,1.39,1.44,,
CGAACC,1.1,1.26,1.15,1.19,,
AGTAAA,0.955,0.983,0.986,,0.994,0.94
GGCACT,1.24,1.26,1.27,,,
CCCCTA,0.985,1.2,,,1.08,1.06
AACTGT,0.932,0.918,0.934,0.911,0.928,
AAAATG,1.17,1.26,1.24,,,
CGAACG,0.914,0.958,0.983,,0.991,1.09
GCTAAA,1.06,1.06,,1.06,,1.12
GACTTA,0.989,0.961,0.903,,0.969,0.896
AACGGA,1.05,0.994,,1.13,,1.02
GCGTAT,0.974,0.942,,0.992,,0.939
TCATGA,1.12,1.06,,,0.957,0.957
TGATGT,1.31,1.32,,,1.41,1.26
GGCTAT,0.934,0.98,1.07,1.12,,
GTTGCG,1,0.981,1.06,0.959,,
TGGGAT,1.12,1.2,1.15,,,
ACACAT,1.34,1.23,1.23,1.35,,

# 2 entries from above, as tab-separated lines.
Sequence	binding signal [1]	binding signal [2]	binding signal [3]	binding signal [4]	binding signal [5]	binding signal [6]
GGCTAT	0.934	0.98	1.07	1.12		
GTTGCG	1	0.981	1.06	0.959		
